Measured values: patent US7442554B2, “Compositions and methods involving glucocorticoid receptor site II” (Bristol-Myers Squibb Company, priority 2002, dated 2008)
Entries after “also recorded” stand apart in the source; their conditions may differ. At least one compound was matched to its structure with a doubt left.

System: AP-1 induced transcriptional activity
Assay: Cellular transrepressional assay (AP-1 luciferase reporter, A549 cell, PMA)
Format: cell-based
Conditions: combined with dexamethasone titration
Experimental: To measure the ability of test molecules to inhibit AP-1 induced transcriptional activity we utilized an A549 cell which was stably transfected with a plasmid containing 7×AP-1 DNA binding sites (pAP-1-Luc plasmid, Stratagene Co. La Jolla, Calif.) followed by the gene for luciferase. Cells were activated with 10 ng/ml of phorbol myristic acid (PMA) plus or minus test molecules for 7 hours. After 7 hours a luciferase reagent was added to measure luciferase enzymatic activity in the cell. After a 10 minute incubation of luciferase reagent with cells, luminescence was measured in a TopCount luminescence counter. Repression of AP-1 activity was calculated as the percentage decrease in the signal induced by PMA alone. […] IC50s were determined by using standard curve fitting methods such as Excel fit (Microsoft Co.). An IC50 is the test molecule concentration which causes a 50% repression of transcription, i.e. a 50% reduction of AP-1 activity.

SMILES: CC#C[C@]1(O)CC[C@H]2[C@@H]3CCC4=CC(=O)CCC4=C3[C@@H](c3ccc(N(C)C)cc3)C[C@@]21C [RU486]
- effect on dexamethasone repression of AP-1 activity: inhibits the ability of dexamethasone to repress AP-1 activity; also recorded: inhibits dexamethasone-mediated repression of AP-1 activity
